Drawing on paper doi:10.1101/758714 (bioRxiv, 2019), this text covers binding for two molecules.

In experiment [1] the target is T1, CRY1 photolyase homology region (PHR), residues 1-491 (human) (UniProt Q16526).
T1 sequence: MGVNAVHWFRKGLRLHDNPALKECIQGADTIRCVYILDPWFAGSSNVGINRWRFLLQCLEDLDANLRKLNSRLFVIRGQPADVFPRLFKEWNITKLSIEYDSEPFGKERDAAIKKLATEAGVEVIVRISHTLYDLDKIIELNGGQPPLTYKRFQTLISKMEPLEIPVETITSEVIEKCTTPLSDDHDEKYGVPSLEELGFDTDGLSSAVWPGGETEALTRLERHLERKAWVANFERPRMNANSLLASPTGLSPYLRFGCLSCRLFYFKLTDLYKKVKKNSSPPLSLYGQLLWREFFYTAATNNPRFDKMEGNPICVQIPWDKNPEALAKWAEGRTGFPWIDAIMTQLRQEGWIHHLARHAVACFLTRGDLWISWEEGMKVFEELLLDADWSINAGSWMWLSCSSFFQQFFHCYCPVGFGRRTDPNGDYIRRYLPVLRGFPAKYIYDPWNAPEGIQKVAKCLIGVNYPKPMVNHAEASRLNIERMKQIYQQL
Briefly: fluorescence polarisation.

The target in experiment [2] is T1, CRY1 photolyase homology region (PHR), residues 1-491 (human). Briefly: NMR titration.
Experiment [3] shares this target. Nature of the experiment: fluorescence polarisation. The source holds these as a separate data set.

Results are given in words; binding and its absence hold for the method and conditions named. Some binding calls cover weakened binding; strength is not graded here.

Take “human CRY1 tail exons 10 and 11 (residues 496-554) (from UniProt Q16526 496-554) (domain or fragment)”: in experiment [1], the binding entry is “binds”.

B1: human CRY1 tail (residues 492-586) (domain or fragment, UniProt Q16526 492-586, looked up)
chain: SRYRGLGLLASVPSNPNGNGGFMGYSAENIPGCSSSGSCSQGSGILHYAHGDSQQTHLLKQGRSSMGTGLSGGKRPSQEEDTQSIGPKVQRQSTN
modifications: fluorescein (FAM) on the N-terminus in the FP binding assays
In the case of B1, the binding entry in experiment [2] and in experiment [3] was “binds” each time.
